No constants are given. Whether binding was seen depends on the method and setting. In cells and extracts the contact can be indirect. Some binding calls cover weakened binding; strength is not graded here.
Target: NOTCH1 (human (endogenous in Jurkat)) (UniProt P46531)
Experiment: co-IP; endogenous proteins in whole cell lysates of Jurkat T cells (also mock-infected controls) stimulated with plate-bound anti-human CD3ε and anti-human CD28 for the indicated times; 1% NP-40 lysis buffer (10 mM Tris-HCl pH 7.8, 0.5 mM EDTA, 250 mM NaCl); 2 μg antibody overnight at 4°C, protein G-sepharose; immunoblot

The chains behind the UniProt entries cited, without tags or fusion partners. Residues count along the entry.
UniProt P46531, residues 19-2555: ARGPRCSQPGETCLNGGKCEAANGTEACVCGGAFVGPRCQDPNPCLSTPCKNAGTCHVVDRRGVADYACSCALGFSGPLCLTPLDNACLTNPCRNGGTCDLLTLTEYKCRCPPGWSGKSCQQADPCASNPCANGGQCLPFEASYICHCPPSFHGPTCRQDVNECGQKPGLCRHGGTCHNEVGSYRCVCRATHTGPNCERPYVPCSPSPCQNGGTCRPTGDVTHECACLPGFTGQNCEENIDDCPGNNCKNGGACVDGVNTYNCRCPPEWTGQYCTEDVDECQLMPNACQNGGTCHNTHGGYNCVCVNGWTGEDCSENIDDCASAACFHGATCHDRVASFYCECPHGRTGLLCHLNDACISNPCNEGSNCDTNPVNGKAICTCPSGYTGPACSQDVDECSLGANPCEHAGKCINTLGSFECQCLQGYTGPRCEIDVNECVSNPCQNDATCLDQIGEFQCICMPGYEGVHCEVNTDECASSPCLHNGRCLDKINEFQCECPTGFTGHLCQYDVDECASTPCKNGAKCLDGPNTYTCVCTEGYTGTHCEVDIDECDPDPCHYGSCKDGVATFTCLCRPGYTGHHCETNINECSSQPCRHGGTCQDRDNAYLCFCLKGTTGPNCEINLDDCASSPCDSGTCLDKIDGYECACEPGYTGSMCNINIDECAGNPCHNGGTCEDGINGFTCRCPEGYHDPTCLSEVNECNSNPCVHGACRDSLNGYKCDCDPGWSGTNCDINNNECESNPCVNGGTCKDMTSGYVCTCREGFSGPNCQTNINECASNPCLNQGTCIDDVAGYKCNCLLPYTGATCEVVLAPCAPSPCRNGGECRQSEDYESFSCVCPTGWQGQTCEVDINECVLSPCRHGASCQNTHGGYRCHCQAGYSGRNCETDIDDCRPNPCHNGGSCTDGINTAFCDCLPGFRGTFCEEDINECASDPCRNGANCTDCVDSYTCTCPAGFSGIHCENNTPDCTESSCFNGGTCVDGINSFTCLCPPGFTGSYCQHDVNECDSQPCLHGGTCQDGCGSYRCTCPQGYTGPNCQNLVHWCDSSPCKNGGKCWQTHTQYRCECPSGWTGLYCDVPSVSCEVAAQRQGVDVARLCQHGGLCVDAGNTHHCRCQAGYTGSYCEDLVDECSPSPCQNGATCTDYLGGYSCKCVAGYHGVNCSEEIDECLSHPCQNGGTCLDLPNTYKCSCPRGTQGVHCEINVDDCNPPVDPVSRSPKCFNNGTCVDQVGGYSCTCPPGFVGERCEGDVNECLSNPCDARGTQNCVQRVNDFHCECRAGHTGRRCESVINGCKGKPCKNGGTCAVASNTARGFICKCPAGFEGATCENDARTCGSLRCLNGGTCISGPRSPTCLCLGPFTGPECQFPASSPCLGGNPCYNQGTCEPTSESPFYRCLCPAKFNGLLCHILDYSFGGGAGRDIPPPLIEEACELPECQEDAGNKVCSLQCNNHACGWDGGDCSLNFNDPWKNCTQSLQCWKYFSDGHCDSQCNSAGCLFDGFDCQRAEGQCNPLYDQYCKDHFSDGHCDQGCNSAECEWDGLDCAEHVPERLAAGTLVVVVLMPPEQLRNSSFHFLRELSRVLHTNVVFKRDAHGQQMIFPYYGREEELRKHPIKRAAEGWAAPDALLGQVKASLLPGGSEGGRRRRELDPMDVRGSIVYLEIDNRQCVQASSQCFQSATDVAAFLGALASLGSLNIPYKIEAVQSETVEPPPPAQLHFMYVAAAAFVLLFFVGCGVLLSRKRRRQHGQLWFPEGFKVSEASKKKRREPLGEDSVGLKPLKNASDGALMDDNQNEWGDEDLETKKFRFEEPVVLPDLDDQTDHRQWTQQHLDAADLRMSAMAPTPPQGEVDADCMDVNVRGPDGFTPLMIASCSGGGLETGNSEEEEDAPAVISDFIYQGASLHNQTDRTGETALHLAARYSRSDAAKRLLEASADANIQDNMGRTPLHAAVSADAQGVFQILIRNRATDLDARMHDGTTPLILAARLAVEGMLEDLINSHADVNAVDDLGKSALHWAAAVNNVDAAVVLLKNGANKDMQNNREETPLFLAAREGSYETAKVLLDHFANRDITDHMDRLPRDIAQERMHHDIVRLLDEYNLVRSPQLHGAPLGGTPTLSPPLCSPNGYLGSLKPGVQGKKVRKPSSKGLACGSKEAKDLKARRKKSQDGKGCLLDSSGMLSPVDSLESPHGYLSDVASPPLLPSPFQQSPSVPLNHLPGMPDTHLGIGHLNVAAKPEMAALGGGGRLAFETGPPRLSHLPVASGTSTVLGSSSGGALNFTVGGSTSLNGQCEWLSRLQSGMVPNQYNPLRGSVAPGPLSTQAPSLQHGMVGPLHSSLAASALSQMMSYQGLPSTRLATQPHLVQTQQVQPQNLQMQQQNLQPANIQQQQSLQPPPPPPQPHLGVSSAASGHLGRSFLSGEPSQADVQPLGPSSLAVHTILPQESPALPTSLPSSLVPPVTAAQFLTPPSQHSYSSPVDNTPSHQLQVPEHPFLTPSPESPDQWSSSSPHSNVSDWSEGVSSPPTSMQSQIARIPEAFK

B1: CARMA1 (protein, UniProt Q9BXL7 1-1154)
chain: MPGGGPEMDDYMETLKDEEDALWENVECNRHMLSRYINPAKLTPYLRQCKVIDEQDEDEVLNAPMLPSKINRAGRLLDILHTKGQRGYVVFLESLEFYYPELYKLVTGKEPTRRFSTIVVEEGHEGLTHFLMNEVIKLQQQMKAKDLQRCELLARLRQLEDEKKQMTLTRVELLTFQERYYKMKEERDSYNDELVKVKDDNYNLAMRYAQLSEEKNMAVMRSRDLQLEIDQLKHRLNKMEEECKLERNQSLKLKNDIENRPKKEQVLELERENEMLKTKNQELQSIIQAGKRSLPDSDKAILDILEHDRKEALEDRQELVNRIYNLQEEARQAEELRDKYLEEKEDLELKCSTLGKDCEMYKHRMNTVMLQLEEVERERDQAFHSRDEAQTQYSQCLIEKDKYRKQIRELEEKNDEMRIEMVRREACIVNLESKLRRLSKDSNNLDQSLPRNLPVTIISQDFGDASPRTNGQEADDSSTSEESPEDSKYFLPYHPPQRRMNLKGIQLQRAKSPISLKRTSDFQAKGHEEEGTDASPSSCGSLPITNSFTKMQPPRSRSSIMSITAEPPGNDSIVRRYKEDAPHRSTVEEDNDSGGFDALDLDDDSHERYSFGPSSIHSSSSSHQSEGLDAYDLEQVNLMFRKFSLERPFRPSVTSVGHVRGPGPSVQHTTLNGDSLTSQLTLLGGNARGSFVHSVKPGSLAEKAGLREGHQLLLLEGCIRGERQSVPLDTCTKEEAHWTIQRCSGPVTLHYKVNHEGYRKLVKDMEDGLITSGDSFYIRLNLNISSQLDACTMSLKCDDVVHVRDTMYQDRHEWLCARVDPFTDHDLDMGTIPSYSRAQQLLLVKLQRLMHRGSREEVDGTHHTLRALRNTLQPEEALSTSDPRVSPRLSRASFLFGQLLQFVSRSENKYKRMNSNERVRIISGSPLGSLARSSLDATKLLTEKQEELDPESELGKNLSLIPYSLVRAFYCERRRPVLFTPTVLAKTLVQRLLNSGGAMEFTICKSDIVTRDEFLRRQKTETIIYSREKNPNAFECIAPANIEAVAAKNKHCLLEAGIGCTRDLIKSNIYPIVLFIRVCEKNIKRFRKLLPRPETEEEFLRVCRLKEKELEALPCLYATVEPDMWGSVEELLRVVKDKIGEEQRKTIWVDEDQL
For B1, the binding was “binds”.
